Assay results as given in patent publication US20240197852A1, “PSORALEN-I[…] G[…] AND METHODS THEREOF” (Wake Forest University Health Sciences, priority 2021, published 2024).
At least one compound was matched to its structure with a doubt left.

Assays:
Format in all cases: cell-based, Neisseria gonorrhoeae
Conditions in all cases: 1 Joule/cm^2
GC strain FA1090 = test: one round of AMT and UV light crosslinking of GC, plating, percent cell survival
Description: (§1) Psoralen Inactivation: GC strains were grown overnight on GC agar plates. Overnight growth (between 16 and 18 hours) was resuspended in 5 mls of GCP and OD600 was adjusted to 1.0. Cells were diluted 2:25 in 5 mls GCP supplemented with sodium bicarbonate and Isovitalex and grown at 37 °C in the shaker for 7 hours at which time AMT was added and the cultures were incubated in the shaker for another hour. All bacterial cultures were then moved into 6 well cell culture plates and treated with 1 Joule/cm^2 UV light using an Analytik Jena Crosslinker with UVA light source (365 nm) (model #CL-1000L, Upland, CA). Cultures were returned to tubes and a second dose of AMT was added. Cultures were shaken for 1 hour at 37 °C and then crosslinked again at the same UV dose. Samples were washed in PBS and then plated on GC agar and incubated for two days at 37 °C and 5% CO2 to measure growth as an indication of the presence of residual CFU.
(§2) Evaluating the use of a GC uvrB mutants: In order to examine the effect of a mutation in the uvrB locus that affects DNA repair GC strains FA1090 and its derivatives 1-81-S2 (uvrB:kan #4 Opa+) and 1-81-S2 (uvrB:kan #9) were tested. uvrB mutants have been used by other labs to reduce the amount of 8-MOP or S-59 needed to inactivate bacterial cells and to therefore leave them with higher metabolic activity (KBMA). FA1090 and mutant strains were treated with varying doses of AMT, grown for one hour at 37 °C, and then irradiated with UVA at 1 Joule/cm^2. The entire culture was washed and plated onto a single plate. Surviving colonies were counted and compared to live cultures to determine percent cell survival. Multiple cultures of each strain were tested at each dosage level. (see Table 3).

[1] = system: FA1090 uvrB mutant strain 1-81-S2 (uvrB:kan #4 Opa+); test: one round of AMT and UV light crosslinking of GC uvrB mutant, plating, percent cell survival
Description: as §1, §2

[2] = system: FA1090 uvrB mutant strain 1-81-S2 (uvrB:kan #9); test: as above
Description: as §1, §2

SMILES: Cc1oc2c(C)c3oc(=O)cc(C)c3cc2c1CN [AMT, 4-aminomethyl-4,5′, 8-trimethylpsoralen]
- surviving colonies / total cells treated (GC strain FA1090; AMT 2 ug/ml): 73/9.3 × 10^8;
- surviving colonies / total cells treated (GC strain FA1090; AMT 5 ug/ml): 101/8.23 × 10^9;
- surviving colonies / total cells treated (GC strain FA1090; AMT 7 ug/ml): 0/9.3 × 10^8;
- surviving colonies / total cells treated (GC strain FA1090; AMT 10 ug/ml): 0/9.3 × 10^8;
- surviving colonies / total cells treated (GC strain FA1090; AMT 30 ug/ml): 0/3.9 × 10^8;
- surviving colonies / total cells treated (GC strain FA1090; AMT 50 ug/ml): 0/9.3 × 10^8;
- surviving colonies / total cells treated (GC strain FA1090; AMT 70 ug/ml): 1/3.9 × 10^8;
- surviving colonies / total cells treated (GC strain FA1090; AMT 100 ug/ml): 0/3.9 × 10^8;
- surviving colonies / total cells treated ([1]; AMT 2 ug/ml): 2/3.6 × 10^9
- surviving colonies / total cells treated ([1]; AMT 5 ug/ml): 0/2 × 10^8;
- surviving colonies / total cells treated ([1]; AMT 7 ug/ml): 0/2.4 × 10^9;
- surviving colonies / total cells treated ([1]; AMT 10 ug/ml): 0/2 × 10^8;
- surviving colonies / total cells treated ([1]; AMT 30 ug/ml): 0/4.5 × 10^8;
- surviving colonies / total cells treated ([1]; AMT 50 ug/ml): 0/4.5 × 10^8;
- surviving colonies / total cells treated ([1]; AMT 70 ug/ml): 5/4.5 × 10^8;
- surviving colonies / total cells treated ([1]; AMT 100 ug/ml): 0/4.5 × 10^8;
- surviving colonies / total cells treated ([2]; AMT 2 ug/ml): 34/4.7 × 10^9;
- surviving colonies / total cells treated ([2]; AMT 5 ug/ml): 18/4.5 × 10^9;
- surviving colonies / total cells treated ([2]; AMT 7 ug/ml): 1/1.6 × 10^9;
- surviving colonies / total cells treated ([2]; AMT 10 ug/ml): 0/3.2 × 10^8;
- surviving colonies / total cells treated ([2]; AMT 30 ug/ml): 0/3.2 × 10^8;
- surviving colonies / total cells treated ([2]; AMT 50 ug/ml): 0/3.2 × 10^8;
- surviving colonies / total cells treated ([2]; AMT 70 ug/ml): 0/3.2 × 10^8;
- surviving colonies / total cells treated ([2]; AMT 100 ug/ml): 0/3.2 × 10^8;
